Measurements published in patent US6939845B2, “Fragrance precursors” (Givaudan SA, priority 2000, dated 2005).

Experiment: Spray tests: release on cotton Terry towel upon irradiation with a tanning lamp, judged by trained panel of perfumers
Set-up: key: O: very weak; +: weak; ++: medium; +++: strong
Conditions: 45-75 μg/g cotton, after irradiation with tanning lamp 300 W
Procedure: 1 g of an approximately 0.2% cyclic phenacyl acetal (I) solution in ethanol was evenly sprayed on a Terry towel (white cotton towel, 25cm×25 cm, 45 g), corresponding to 45-75 μg/g cotton. The sprayed towels were allowed to dry in a dark and odorless place. When dry, the towels were irradiated for a few seconds up to a few minutes with a tanning lamp (Osram ULTRA-VITALUX®, 300 W; at a distance of 50 cm, the light has approximately six to seven times the effect of the natural sunlight at noon on a sea-side mid-summer day). The evaluation was done by a trained panel of perfumers before and after irradiation. Before irradiation, the towels were judged to be odorless.

Structure (SMILES) | Fragrance Target (perception) aryl ketone (II) | Fragrance Target (perception) lactone (III) | Global appreciation
CCCCCCCC1CCC(OCC(=O)c2ccc(OC)cc2)O1 (stereo not drawn) [compound 4, 2-(5-Heptyl-tetrahydro-furan-2-yloxy)-1-(4-methoxy-phenyl)-ethanone] | Acetanisole (++) | PEACH PURE ® (++) | +++
Cc1cc2c(cc1C(=O)COC1CCC3(CCC(C)CC3)O1)C(C)(C)CC(C)C2(C)C (stereo not drawn) [compound 1, 1-(3,5,5,6,8,8-Hexamethyl-5,6,7,8-tetrahydro-naphtalen-2-yl)-2-(8-methyl-1-oxa-spiro[4.5]dec-2-yloxy)-ethanone] | FIXOLIDE ® (++) | METHYL LAITONE ® (+) | +
CCCCCCCC1CCC(OCC(=O)c2ccc3ccccc3c2)O1 (stereo not drawn) [compound 3, 2-(5-Heptyl-tetrahydro-furan-2-yloxy)-1-naphtalen-2-yl-ethanone] | ORANGER CRYSTALS ® (++) | PEACH PURE ® (++) | ++
C/C=C/CCC1CCCC(OCC(=O)c2cc3c(cc2C)C(C)(C)C(C)CC3(C)C)O1 (stereo not drawn) [compound 5, 1-(3,5,5,6,8,8-Hexamethyl-5,6,7,8-tetrahydro-naphthalen-2-yl)-2-(6-pent-3-enyl-tetrahydro-pyran-2-yloxy)-ethanone] | FIXOLIDE ® (++) | JASMOLACTONE ® (+++) | +++
CCCCCCCC1CCC(OCC(=O)c2cc3c(cc2C)C(C)(C)C(C)CC3(C)C)O1 (stereo not drawn) [compound 2, 2-(5-Heptyl-tetrahydro-furan-2-yloxy)-1-(3,5,5,6,8,8-hexamethyl-5,6,7,8-tetrahydro-naphtalen-2-yl)-ethanone] | FIXOLIDE ® (++) | PEACH PURE ® (++) | ++
C/C=C/CCC1CCCC(OCC(=O)c2ccc3ccccc3c2)O1 (stereo not drawn) [compound 6, 1-(Naphtalen-2-yl)-2-(6-pent-3-enyl-tetrahydro-pyran-2-yloxy)-ethanone] | ORANGER CRYSTALS ® (++) | JASMOLACTONE ® (++) | ++
